Screening data, single-dose tests

Chains of the proteins cited; added tags and fusions are not shown. Residues count along the entry.
UniProt A4I591, 1-473: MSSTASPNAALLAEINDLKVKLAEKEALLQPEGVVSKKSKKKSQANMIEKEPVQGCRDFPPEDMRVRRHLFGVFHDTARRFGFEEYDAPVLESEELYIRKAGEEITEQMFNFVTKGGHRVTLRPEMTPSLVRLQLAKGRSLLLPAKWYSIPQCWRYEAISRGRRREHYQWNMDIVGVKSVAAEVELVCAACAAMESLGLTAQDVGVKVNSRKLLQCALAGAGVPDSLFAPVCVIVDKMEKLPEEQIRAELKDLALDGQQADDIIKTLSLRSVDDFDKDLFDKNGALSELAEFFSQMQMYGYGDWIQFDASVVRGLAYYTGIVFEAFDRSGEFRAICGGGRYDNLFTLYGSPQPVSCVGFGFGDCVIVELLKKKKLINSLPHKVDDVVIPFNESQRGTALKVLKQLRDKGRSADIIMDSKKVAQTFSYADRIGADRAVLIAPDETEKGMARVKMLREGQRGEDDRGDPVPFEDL
UniProt P9WNZ1, whole entry: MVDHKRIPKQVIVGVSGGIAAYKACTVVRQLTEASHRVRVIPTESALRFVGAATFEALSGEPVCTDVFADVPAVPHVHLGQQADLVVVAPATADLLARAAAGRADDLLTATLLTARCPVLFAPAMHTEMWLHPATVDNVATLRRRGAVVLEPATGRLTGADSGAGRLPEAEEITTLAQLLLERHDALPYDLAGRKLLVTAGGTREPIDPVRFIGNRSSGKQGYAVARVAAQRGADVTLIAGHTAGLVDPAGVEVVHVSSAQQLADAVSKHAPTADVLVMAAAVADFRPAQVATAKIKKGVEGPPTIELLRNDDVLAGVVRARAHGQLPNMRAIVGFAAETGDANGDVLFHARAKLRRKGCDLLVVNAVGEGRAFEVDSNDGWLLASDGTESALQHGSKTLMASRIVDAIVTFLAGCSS

Each number is a percent effect as filed.
The record does not define 0% and 100%; most values in the screen are far below 50% and negative numbers occur (in some assays of this library far below -100).
Compounds were drawn at random from those tested, without regard to their results.
Two or more numbers in one place are separate tests of the same structure; such repeats can differ widely.
A dash means the value is not listed here; it may have been measured.

LiHisRS: 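Enzyme assay of histidyl-tRNA synthetase; the read-out is not stated. Target: Histidine-tRNA ligase, Leishmania infantum (UniProt A4I591). Concentration: 30 µM. The record gives no direction; compounds that gave an IC50 in retests scored well above the rest, so higher reads as stronger inhibition. The assay is labelled LdHisRS but filed under L. infantum. About 69,000 compounds were tested under these conditions; 0.6% (about 410) showed 50% or more at least once.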
Leishmania in macrophages: 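Cell assay of Leishmania donovani living inside macrophages; the read-out is not stated. Compounds at 30 µM. Higher reads as stronger inhibition (inferred: compounds with an IC50 in retests scored well above the rest). About 69,000 compounds were tested under these conditions; 1.5% (about 1,000) showed 50% or more at least once.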
CoaBC: 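Coenzyme A biosynthesis protein CoaBC, Mycobacterium tuberculosis (UniProt P9WNZ1). Enzyme assay of CoaBC with a phosphate dye (Biomol Green) read at 650 nm. Tested at 30 µM. Higher reads as stronger inhibition, judged from the few compounds that gave an IC50. Most strong results did not repeat in a second test. Size under these conditions: about 67,000 compounds, about 40 of them at 50% or above in at least one test.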

compound	LiHisRS	Leishmania in macrophages	CoaBC
CC(C)CCN1C[C@H]2C[C@H](C(=O)Nc3ccccc3)[C@@H](C1)O2	20.51%	-	8.772%
Cl.Cl.O[C@@H]1C[C@@](CNCc2cccc(Cl)c2)(COc2cccnc2)C[C@@H]1O	-	-9.481%	-
Cn1c2ncccc2c(=O)n1CC(=O)NCCC1=CCCCC1	8.163%	5.463%	-1.157%
Cc1ccc(N2CCCC(NCCS(C)(=O)=O)C2)nn1 (centres unmarked)	13.43%	26.81%	3.614%
Cc1ccc(-n2c(C)nnc2SCC(O)COCc2ccco2)cc1 (centres unmarked)	3.226%	11.13%	-0.369%
Cn1cc(N2CC3(COCCN(Cc4nccs4)C3)OCC2=O)cn1.O=C(O)C(F)(F)F (centres unmarked)	-	21.28%	-
O=C(NCc1ccccn1)[C@]12COC[C@H]1CN(Cc1ccccc1F)C2	11.11%	-	-6.667%
CC(=O)NCC(=O)N1CCOC(c2cccc(N)n2)C1 (centres unmarked)	12.68%	-3.588%	4.038%
Cn1ccnc1C(=O)NCc1cnc2n1CCN(CC1CC1)CC2.O=C(O)C(F)(F)F.O=C(O)C(F)(F)F	-	4.016%	-
CC(C)OCc1ncn2c1CN(CCO)CCC2.O=C(O)C(F)(F)F	-	1.242%	-
CCN(C(=O)COC)C(c1cccnc1)c1cc(C)cc(C)c1 (centres unmarked)	-3.81%	-11.01%	3.226%
O=C1NCCCC[C@@H]1NC(=O)C1(N2CCCCC2)Cc2ccccc2C1	18.09%	25.99%	6.397%
Cc1nn(C)c(C)c1CNC1CCOc2ccccc21 (centres unmarked)	5.66%	24.56%	2.203%
Cn1ccnc1CN1CCN2C[C@H](OCc3ccccc3)C[C@H]2C1	25.71%	-	6.515%
c1cnc2c(c1)nc1n2[C@@H](CNC2CCOCC2)COC1	13.89%	0.129%	6.129%
c1cc(CN2Cc3nccn3CC(Cn3cncn3)C2)ccn1 (centres unmarked)	26.6%	-	8.239%
Cc1ccc2c(c1)C(=O)NCC1(CCN(C(=O)c3csc(C)c3)CC1)O2	24%	8.748%	8.55%
[H][C@]12CN(Cc3scnc3C)C[C@@]1([H])OCCN(S(C)(=O)=O)C2	-	25.02%	-
C(=C/c1ccccc1)\CNCC1CCc2nncn2C1 (centres unmarked)	19.1%	-	-15.62%
CN(C)CCO[C@H]1CN(CC2CC2)[C@@H]2CCCO[C@H]12	-1.98%	-	-3.837%
Cn1c(=O)[nH]c(=O)c2c1nc1n2CC(c2ccc(Br)cc2)O1 (centres unmarked)	13.04%	-0.9825%	-3.417%
Cn1[nH]c(CNc2cccc(Cl)c2)nc1=O	0%	22.27% and 1.956%	5.57%
Cc1cccc(NC(=O)CN2C(=O)CC(C)(C)c3ccccc32)n1	25.27%	26.05%	1.687%
Cc1nc(C)n(C2CCCN(C(=O)CCOCC(C)C)C2)n1 (centres unmarked)	8.696%	-31.79%	-1.677%
COCCn1cc2c(n1)C(CNCc1ccsc1)OCC2 (centres unmarked)	19.44%	-	10.62%
CC(C)C(=O)N1CC[C@@H]2CN(Cc3ccncc3)S(=O)(=O)[C@@H]2CC1	3.509%	-	-6.131%
O=S1(=O)COCCN1Cc1ccc(F)c(C(F)(F)F)c1	13.48%	-18.23%	2.527%
CCn1c(CN(C)C(=O)c2ccc(O)nc2)nc2ccccc21	10.53%	13.74%	-17.34%
[H][C@@]12CN(Cc3nccs3)C[C@H](C(=O)N3CCCC3)[C@]1([H])CCO2	-	5.703%	-
Cc1nccn1CCCC(=O)N1CCCN(c2cccnn2)CC1	12.28%	18.44%	2.36%
O=C(O)C(F)(F)F.[H][C@@]12CCN(CC3CCOCC3)C[C@@]1([H])O[C@H](c1nc(C)no1)C2	-	2.139%	-
Cc1nc(CC2CCCN(Cc3nc(N)c4ccccc4n3)C2)no1 (centres unmarked)	21.98%	23.02%	2.073%
CNC(=O)C1(N2CCC[C@H]2C(=O)NC2CCCCC2)CCOCC1	27.78%	-	6.095%
Cc1ccccc1C1(CNC(=O)c2cccc(S(C)(=O)=O)c2)CC1	14.04%	17.5%	14.52%
CN(CCCO)C(=O)c1cc(COc2ccc3c(c2)CCCC3)on1	12%	3.698%	-2.982%
Cc1cccc(CN2CC[C@@H]3[C@@H]2CCN3C(=O)c2cnoc2C)n1	19.23%	-	8.489%
CN(Cc1ccc(O)cc1)C(=O)NCc1nnc2n1CCCCC2	5.357%	-7.808%	13.6%
O=C(NCC1(N2CCOCC2)CCSC1)Nc1cn[nH]c1 (centres unmarked)	26.03%	42.33%	5.449%
CC(CNC1CCN(c2ccccn2)CC1)Oc1ccc(F)cc1 (centres unmarked)	20.54%	19.84%	7.438%
COC1COC2(CCN(Cc3ccc4ccccc4n3)CC2)C1 (centres unmarked)	23.08%	-	4.01%
c1cncc(OCc2nc(C3CC3)nn2-c2ccc3c(c2)OCCO3)c1	-8.333%	-3.659%	2.404%
CCC(CC)C(O)CNC(=O)Nc1cc(C)nn1C (centres unmarked)	12.36%	-4.226%	0.7712%
Cc1cc(CNC(=O)NCC(O)c2cccc(F)c2)no1 (centres unmarked)	-4%	7.225%	-2.228%
O=C(C1CCCCC1)N1CCC(n2nc(-c3ccco3)ccc2=O)CC1	1.042%	5.595%	-0.7353%
O=C(O)c1nn(CC2CC2)c2c1CN(S(=O)(=O)c1cccnc1)CC2	8.333%	11.4%	8.351%
O=C(CN1CCC(c2ccnn2CCO)CC1)NCC1CC1	7.865%	27.18%	6.17%
OC(CNCCc1nnc2ccccn12)c1ccc2c(c1)OCO2 (centres unmarked)	23.33%	14.08%	6.651%
COCc1c(C(=O)N2CCCC(N(C)Cc3ccccc3)C2)noc1C (centres unmarked)	16.24%	28.52%	1.261%
O=c1[nH]c2ccccc2cc1CN(Cc1ccccn1)CC1CCCO1 (centres unmarked)	35.62%	13.46%	5%
Cn1c(NC(=O)CNC(=O)C2CCCC2)nc2cc(Cl)ccc21	10.67%	-1.457%	7.438%
CC(Nc1ccc(CCN2CCCCC2)cc1)C(=O)N(C)CCC#N (centres unmarked)	8.772%	7.318%	-13.71%
Cc1ncc(CNC(=O)Cc2cccs2)c(C2CCCN2C)n1 (centres unmarked)	16.49%	14.07% and 8.825%	-2.421%
CN1CCOC(C(=O)N(C)c2ccc3c(c2)CCO3)C1 (centres unmarked)	5.128%	11.04%	4%
c1ccc(CN2CCCn3nnc(Cn4cccc4)c3C2)nc1	11.11%	-	4.583%
CN(Cc1nccn1CC(F)(F)F)C(=O)c1ccc(F)c(F)c1	22.86%	-36.63%	2.564%
O=C(NCc1cnc2n1CCN(CC1CC1)CC2)C1CCC1	24.53%	39.95%	6.167%
CC1(C)Oc2ccc(NC(=O)c3ccc(=O)[nH]n3)cc2O1	17.46%	17.11%	3.566%
CCN1CCc2cc(C(=O)N(C)C)c(NCC3CC3)nc2CC1	6.944%	-0.8198%	2.716%
O=C(NCC1(CO)CC1)c1cccc2ccccc12	13.46%	-3.544%	-1.493%
O=C(Nc1ccc(N2CCCC2)nc1)N1CCc2sccc2C1	7.692%	9.43%	2.277%
COCc1nc2nc(O)c3c(n2n1)NC(=O)CC3c1ccccc1Cl (centres unmarked)	8.475%	6.632%	1.38%
CSCc1noc(CNC(=O)C2CCN(C(=O)C3CC3)CC2)n1	4.082%	12.6%	41.56% and 6.701%
Cc1ncc2c(n1)CCN(Cc1nc3ccccc3o1)C2	25.68%	-11.52%	2.216%
Cl.O=C(NCc1ccc(Cl)cc1)N1CCN(CC(O)C2CC2)CC1 (centres unmarked)	-	14.45%	-
Cl.NCCNS(=O)(=O)Cc1ccc(Br)cc1	-	13.43%	-
CCS(=O)(=O)N1CCOC2(CCCN(Cc3ccccn3)C2)C1.O=C(O)C(F)(F)F (centres unmarked)	-	26.47%	-
O=C(NC[C@]12COC[C@H]1CN(C1CCOCC1)C2)c1ccco1	9.489%	-	-5.44%
O=C1NCCCCC1NCc1csc(-c2ccccn2)n1 (centres unmarked)	10.83%	-	-
Cc1ccc2nc(C3CCN(CC(C)C)CC3)nc(O)c2c1	-2.759%	6.869%	2.368%
COc1c(Br)cccc1CCNC(=O)c1ncoc1C	1.667%	-22.18%	-7.337%
CC(C)c1nn(C)c(Cl)c1CNCc1ccc2c(c1)OCCO2	28.79%	-	4.508%
CC/N=c1\nc(NCC)nc2n1C(O)(Nc1cc(Cl)ccc1Cl)CS2 (centres unmarked)	-4.348%	-2.928%	-2.421%

5 of the entries, repeated:

O=C(NCC1(N2CCOCC2)CCSC1)Nc1cn[nH]c1 (centres unmarked) gave LiHisRS: 26.03%; Leishmania in macrophages: 42.33%; CoaBC: 5.449%.
Cc1nc(C)n(C2CCCN(C(=O)CCOCC(C)C)C2)n1 (centres unmarked) gave LiHisRS: 8.696%; Leishmania in macrophages: -31.79%; CoaBC: -1.677%.
Cl.Cl.O[C@@H]1C[C@@](CNCc2cccc(Cl)c2)(COc2cccnc2)C[C@@H]1O gave Leishmania in macrophages: -9.481%.
O=C(O)c1nn(CC2CC2)c2c1CN(S(=O)(=O)c1cccnc1)CC2 gave LiHisRS: 8.333%; Leishmania in macrophages: 11.4%; CoaBC: 8.351%.
Cc1cccc(NC(=O)CN2C(=O)CC(C)(C)c3ccccc32)n1 gave LiHisRS: 25.27%; Leishmania in macrophages: 26.05%; CoaBC: 1.687%.

Data taken from ChEMBL document CHEMBL3988442, “University of Dundee, Small-Polar-MMV Screening Library” (2021).